From article PMC10847417 come the findings set out here.

Amino acid sequences for entries named in this document (tags omitted). A change or cut given only in a name is not applied to a line headed by its entry.
UniProt P14618: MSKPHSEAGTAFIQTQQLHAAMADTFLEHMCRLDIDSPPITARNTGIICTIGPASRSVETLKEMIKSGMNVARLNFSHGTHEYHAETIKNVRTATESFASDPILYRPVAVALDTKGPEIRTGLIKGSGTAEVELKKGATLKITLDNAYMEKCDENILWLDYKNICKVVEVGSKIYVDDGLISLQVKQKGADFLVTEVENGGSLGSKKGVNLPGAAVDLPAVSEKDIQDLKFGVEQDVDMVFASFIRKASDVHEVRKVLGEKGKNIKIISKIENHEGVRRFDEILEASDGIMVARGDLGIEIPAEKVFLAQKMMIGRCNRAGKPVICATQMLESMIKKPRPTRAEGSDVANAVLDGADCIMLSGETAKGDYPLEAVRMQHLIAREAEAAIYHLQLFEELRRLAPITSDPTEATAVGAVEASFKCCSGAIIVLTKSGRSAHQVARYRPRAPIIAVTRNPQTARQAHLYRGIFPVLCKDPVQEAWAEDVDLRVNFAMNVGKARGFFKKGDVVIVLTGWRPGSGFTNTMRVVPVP
UniProt Q15172: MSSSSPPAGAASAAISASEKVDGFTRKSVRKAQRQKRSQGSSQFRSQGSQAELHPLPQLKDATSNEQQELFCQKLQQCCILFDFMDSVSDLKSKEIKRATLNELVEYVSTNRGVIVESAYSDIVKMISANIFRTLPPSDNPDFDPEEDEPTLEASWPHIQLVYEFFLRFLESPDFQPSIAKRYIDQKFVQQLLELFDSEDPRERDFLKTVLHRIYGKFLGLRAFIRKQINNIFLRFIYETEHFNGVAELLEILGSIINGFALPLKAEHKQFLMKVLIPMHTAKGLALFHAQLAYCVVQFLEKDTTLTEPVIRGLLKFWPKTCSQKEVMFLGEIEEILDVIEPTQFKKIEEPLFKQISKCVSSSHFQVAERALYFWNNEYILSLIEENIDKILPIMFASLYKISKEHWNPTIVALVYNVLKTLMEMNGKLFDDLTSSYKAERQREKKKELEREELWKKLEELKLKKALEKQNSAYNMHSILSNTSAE
UniProt P52294: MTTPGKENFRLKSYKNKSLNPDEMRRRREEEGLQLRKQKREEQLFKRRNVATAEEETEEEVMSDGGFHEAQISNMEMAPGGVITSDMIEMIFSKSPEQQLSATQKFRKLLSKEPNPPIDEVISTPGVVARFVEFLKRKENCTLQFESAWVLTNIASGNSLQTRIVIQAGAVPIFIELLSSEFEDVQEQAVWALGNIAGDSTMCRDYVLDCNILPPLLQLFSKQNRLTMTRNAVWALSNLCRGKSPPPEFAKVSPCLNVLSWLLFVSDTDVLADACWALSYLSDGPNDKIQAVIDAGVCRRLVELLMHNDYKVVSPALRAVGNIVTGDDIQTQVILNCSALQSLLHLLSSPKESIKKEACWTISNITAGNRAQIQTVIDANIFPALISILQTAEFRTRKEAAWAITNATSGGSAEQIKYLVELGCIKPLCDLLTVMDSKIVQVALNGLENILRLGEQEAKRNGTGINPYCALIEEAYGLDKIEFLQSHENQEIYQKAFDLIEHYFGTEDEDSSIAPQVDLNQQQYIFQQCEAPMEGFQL

Assay [1] addresses HA-PKM2 (wild type), expressed in 293T cells (human) (UniProt P14618). The experiment in a line: co-IP; HA-tagged PKM2 constructs co-transfected with Flag-tagged CIP2A or Flag-tagged B56 subunits into 293T cells; IP of total protein extracts and western blot. For orientation: Immunoblotting shows a protein as a band on a membrane.
Assay [2] concerns the target pyruvate kinase M2 (PKM2), endogenous (human (endogenous in A549 and H1299)) (UniProt P14618). The experiment in a line: proximity ligation; Duolink in situ PLA on fixed, permeabilised A549 and H1299 cells with primary antibodies to the two endogenous proteins.
The target is the same in assay [3]. The experiment in a line: co-IP; endogenous proteins in A549 and H1299 lysates; IP lysis buffer, 2 μg antibody and Protein A/G PLUS-Agarose at 4 °C overnight, five washes, western blot.
The target in assay [4] is HA-PKM2 (wild type), expressed in H1299 cells (human) (UniProt P14618). Description: co-IP; HA-PKM2 (WT or mutants) transfected into H1299 cells (also CIP2A-knockdown cells, PKM2-depleted cells, with or without Flag-CIP2A); proteins immunoprecipitated by HA-PKM2, endogenous partners by western blot.
Assay [5] deals with HA-PKM2 L218A/V221A (human) (UniProt P14618). The description is as above.
For assay [6], the target named is shRNA-resistant HA-PKM2 S287A mutant, expressed in PKM2-depleted H1299 cells (human) (UniProt P14618). Described as above.

These are yes or no findings as the source states them, for the method shown. In cells and extracts the contact can be indirect. Some results given as binding are weak or reduced against the parent protein; the word gives no strength.

Consider Flag-B56α (from UniProt Q15172 1-486), for which the binding result in assay [1] is recorded as “binds”.

With “PP2A regulatory subunit B56α, endogenous (from UniProt Q15172 1-486)”, the binding result in assay [2], in assay [3], in assay [4] and in assay [5] was “binds” in each case.

Consider “importin α5, endogenous (from UniProt P52294 1-538)”, for which the binding entry in assay [4] and in assay [6] was “binds” each time.
